Reference: patent US20060252774A1, “Regulation of type 5 adenylyl cyclase for treatment of neurodegenerative and cardiac diseases” (priority 2002, published 2006)
At least one compound was matched to its structure with a doubt left.

System: conscious WT and AC5KO mice
Experiment: Physiological studies in conscious mice: HR (ECG) and arterial pressure
Format: in vivo, mouse
Conditions: 0.05 mg/kg i.v.
Text: FIG. 19: Muscarinic regulation of cardiac function in vivo. A, Effects of atropine. […] B, Effect of ACh. […] C, Baroreflex regulation of HR.
In AC5KO and WT mice, four ECG wires (New England Electric Wire Corporation, Lisbon, N.H., USA) were placed subcutaneously, a silicone elastomer tubing (Cardiovascular Instrument Corp., Wakefield, Mass., USA) was inserted into the right external jugular vein and a 1.4 F micromanometer catheter (Millar Instruments, Inc., Houston, Tex., USA) was inserted into the lower abdominal aorta via the femoral artery as described previously with some modifications. […] All experiments were recorded with animals in the conscious state. After at least 6 hours recovery from the implantation of the catheter, when a stable HR was achieved, the baseline ECG and arterial pressure (AP) were recorded for 5 min. […]
Electrocardiogram (ECG) wires, a jugular vein catheter for drug infusion, and a femoral artery catheter for arterial pressure monitoring were implanted under anesthesia as described previously. […] In addition, in conscious mice ACh (0.01 and 0.05 mg/kg), atropine (0.25, 1 and 2 mg/kg), or verapamil (0.75 mg/kg) were administered i.v., and the ECG was recorded. […] To examine HR responses to baroreflex hypertension, phenylephrine (0.2 mg/kg i.v.) was infused, and the ECG and arterial pressure were measured

CC(=O)OCC[N+](C)(C)C [ACh, acetylcholine]
decrease of HR at high dose (in words): decreased HR similarly in both WT and AC5KO
